Assay results: PubChem BioAssay AID758 (NMMLSC, 2007)
About 110 (0.058%) of roughly 190,000 compounds were called active. Inconclusive results, whose numbers are uncertain, are shown with a selection of clear calls.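 Rule for the calls: active = fluorescent GTP binding to Rab7 beads changed by at least 20 points from the 100% baseline, either direction, mostly lower; inconclusive = compound itself probably fluorescent, or too few beads counted; inactive = the rest.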

These compounds were tested on Rab7 GTPase wild type (dog), Bodipy-FL-GTP binding (assay: modulators of GTP binding to Rab7, primary screen, biochemical, wildtype, multiplex bead flow cytometry (AID 758;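 note: median green fluorescence of bound Bodipy-FL-GTP per Rab7 bead population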)). Details: GST-Rab7 beads, fluorescent GTP binding, at 10 µM, actives lie on both sides, untreated = 100%, excess cold GTP = 0%.

Row | SMILES | GTP binding activity (percent of control)
1 | Cc1cccc(-c2ncc(CN3CCN(CCC(C)C)C(CCO)C3)cn2)c1 (configuration not stated) | inactive: 92%
2 | COc1ccc(CCn2c(C(C)C)nc3c(c(=O)c4ccccc4n3C)c2=O)cc1 | inactive: 96%
3 | CCOC(=O)C(C)Sc1nc(=O)n2cc(C)ccc2n1 (configuration not stated) | inconclusive: 99%
4 | O=C(NCc1ccccn1)c1cc2cc(Br)ccc2oc1=O | inconclusive: 102%
5 | O=C(COC(=O)c1ccccc1C(=O)c1ccc(Cl)cc1)NCC1CCCO1 (configuration not stated) | inconclusive: 97%
6 | CCCCCCn1cnc2c(c1=O)c1nc3ccccc3nc1n2/N=C/c1ccco1 | inconclusive: 92%
7 | O=C(CSCc1c(Cl)cccc1Cl)Nc1ccccc1C(=O)N1CCOCC1 | inconclusive: 102%
8 | COCCOC(=O)C1=C(C)N=C2SCCC(=O)N2C1c1ccc(OC(=O)c2ccco2)cc1 (configuration not stated) | inactive: 97%
9 | COc1ccc(-c2cnnc(N/N=C/c3ccc(OC)c(OC)c3)n2)cc1 | inconclusive: 105%
10 | Cc1ccccc1NCc1nnc2n1CCCCC2 | inactive: 103%
11 | COc1ccc(C2N=C(c3ccccc3)C(C)(C)N2O)cc1OC (configuration not stated) | inactive: 94%
12 | O=C(N/N=C1\CCSC1)c1cc(Cl)ccc1O | inconclusive: 91%
13 | COc1ccc(NC(=O)COC(=O)c2ccco2)c([N+](=O)[O-])c1 | inconclusive: 95%
14 | CC1(C)CC(=O)C=C(Nc2ccccc2O)C1 | inconclusive: 102%
15 | O=C(CCC(=O)OCc1ccc(Br)cc1)Nc1ccccc1 | inactive: 92%
16 | O=C(O)c1csc(Cc2ccccc2)n1 | inconclusive: 111%
17 | O=C(/C=C/c1ccc([N+](=O)[O-])cc1)OCC(=O)N1c2ccccc2Sc2ccccc21 | inactive: 106%
18 | COc1cc2[nH]c(=S)nc(NCCc3ccc(S(N)(=O)=O)cc3)c2cc1OC | inactive: 81%
19 | COc1ccc(Cl)cc1NC(=O)CN1c2ccccc2CC1C (configuration not stated) | inconclusive: 91%
20 | O=C(Nc1nnc(CC(=O)N2CCOCC2)s1)c1cccs1 | inactive: 102%
21 | CSc1ncccc1C(=O)Nc1nnc(C2CC2)s1 | inactive: 102%
22 | COC(=O)c1ccc(C)c(NC(=O)Cc2coc3cc(OC)ccc23)c1 | inconclusive: 94%
23 | Cc1ccc(N(C(=O)C2CCCC2)C2C=CS(=O)(=O)C2)cc1 (configuration not stated) | inactive: 99%
24 | CCOC(=O)NC(c1ccc(C(C)C)cc1)C(Cl)(Cl)Cl (configuration not stated) | inconclusive: 97%
25 | COc1ccc(CNC(=O)COC(=O)c2ccc(Br)cc2)cc1 | inactive: 100%
26 | COc1cc(/C(C)=N/NC(=O)C(O)(c2ccccc2)c2ccccc2)ccc1O | inactive: 106%
27 | CC(C)(C)NC(=O)CCN(/N=C/c1ccc([N+](=O)[O-])o1)C1=NS(=O)(=O)c2ccccc21 | active: 72%

A second format for part of the listing above.
Row	SMILES	GTP binding activity (percent of control)
20	O=C(Nc1nnc(CC(=O)N2CCOCC2)s1)c1cccs1	inactive: 102%
21	CSc1ncccc1C(=O)Nc1nnc(C2CC2)s1	inactive: 102%
